Laboratory results from publication PMC5325390.
No constants are given. Whether binding was seen depends on the method and setting. For some assays here: Binding seen in cells or lysates may run through a third protein. Some binding calls cover weakened binding; strength is not graded here.

Chains of the proteins cited; added tags and fusions are not shown.
UniProt P04198: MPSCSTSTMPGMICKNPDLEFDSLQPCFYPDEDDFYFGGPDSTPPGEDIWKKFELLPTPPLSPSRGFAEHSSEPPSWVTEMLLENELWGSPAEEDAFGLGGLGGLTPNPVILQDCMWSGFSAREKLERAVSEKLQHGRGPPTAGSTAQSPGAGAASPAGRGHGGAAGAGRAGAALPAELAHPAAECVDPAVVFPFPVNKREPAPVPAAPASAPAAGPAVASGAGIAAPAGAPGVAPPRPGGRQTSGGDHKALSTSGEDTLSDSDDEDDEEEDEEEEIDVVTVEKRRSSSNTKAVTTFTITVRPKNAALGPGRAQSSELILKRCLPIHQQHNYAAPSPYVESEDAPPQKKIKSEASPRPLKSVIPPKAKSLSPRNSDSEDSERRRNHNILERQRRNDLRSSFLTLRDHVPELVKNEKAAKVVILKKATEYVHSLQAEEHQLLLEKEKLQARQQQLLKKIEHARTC
UniProt Q99873: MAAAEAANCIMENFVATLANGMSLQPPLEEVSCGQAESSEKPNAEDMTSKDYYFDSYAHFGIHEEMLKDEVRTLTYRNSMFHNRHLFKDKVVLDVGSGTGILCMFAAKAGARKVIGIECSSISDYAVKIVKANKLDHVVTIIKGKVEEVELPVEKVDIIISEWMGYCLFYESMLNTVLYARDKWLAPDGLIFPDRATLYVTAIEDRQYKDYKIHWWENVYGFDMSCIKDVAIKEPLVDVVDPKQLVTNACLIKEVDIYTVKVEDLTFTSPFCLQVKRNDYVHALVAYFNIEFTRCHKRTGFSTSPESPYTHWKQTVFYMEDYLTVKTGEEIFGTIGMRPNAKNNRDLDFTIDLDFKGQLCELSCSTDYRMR

Tests used:
[1] = molecular target: endogenous MYCN (human (endogenous in LAN-5)) (UniProt P04198); experiment: co-IP; nuclear extracts from LAN-5 cells, immunoprecipitation with anti-MYCN monoclonal antibody, immunoblotting with anti-PRMT1 antibody
[2] = molecular target: GST-MYCN fusion protein (full length) (human) (UniProt P04198); experiment: pull-down; GST pull-down: Flag-PRMT1 with GST or GST-MYCN as bait, immunoblotting with anti-Flag antibody; both purified

binding [1] | binding [2] | Substance
binds |  | endogenous PRMT1 (from UniProt Q99873 1-371) (enzyme)
 | binds | Flag-tagged recombinant PRMT1 protein (from UniProt Q99873 1-371) (enzyme)
